Values from PubChem BioAssay AID1053208 (Peter MacCallum Cancer Centre, 2014).
Here is a random part of about 17,000 reagents. Of all reagents, 788 (4.7%) got an active call. 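Calls rest on z-score classes alone; an extra cut-off of viability at most 70% of control was not applied to them.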 No sequences are given here.

Screen: 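Find knock-downs that sensitise mouse osteosarcoma cells to doxorubicin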 (primary screen)
System: mouse osteosarcoma cells, early-passage culture from an engineered mouse model of fibroblastic bone tumour
Reagent: siRNA pool against mouse genes, 40 nM
Timing: about 120 h (48 h before drug, then 72 h with drug)
Challenge: doxorubicin 100 nM for 72 h, roughly 30-40% inhibitory dose
Read-out: 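Luminescent ATP signal taken as viability with or without 100 nM doxorubicin for 72 h; mean of two wells set against non-targeting siRNA and turned into robust z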
Direction: viability z-score with doxorubicin and doxorubicin viability vs non-targeting: higher = more viable cells under doxorubicin; viability z-score without drug: higher = more viable cells with knock-down alone; z-score of drug to no-drug ratio: higher = less drug sensitisation by knock-down
Call rule: 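Called active if knock-down leaves viability unchanged without drug (z within -2 to 2) but lowers it with doxorubicin (z at or under -2)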

| Gene | combined z-score class | viability z-score with doxorubicin | viability z-score without drug | z-score of drug to no-drug ratio | doxorubicin viability vs non-targeting | outcome |
| --- | --- | --- | --- | --- | --- | --- |
| Oog3 | no change with or without drug | 0.22 | 0.84 | -0.22 | 0.96 | inactive |
| Rtp3 | high cell count without drug only | 0.79 | 2.53 | -0.67 | 1.01 | inactive |
| Snrnp48 | no change with or without drug | 0.22 | 1.18 | -0.45 | 0.96 | inactive |
| Map6 | no change with or without drug | -1.46 | 0.51 | -1.69 | 0.81 | inactive |
| Ywhag | no change with or without drug | -1.35 | -1.01 | -0.67 | 0.82 | inactive |
| Mex3b | no change with or without drug | -0.11 | 0.51 | -0.34 | 0.93 | inactive |
| Foxj1 | high cell count without drug only | 1.35 | 2.53 | -0.22 | 1.06 | inactive |
| Prph | no change with or without drug | -0.11 | -0.17 | 0.11 | 0.93 | inactive |
| Htr1b | no change with or without drug | 1.8 | -1.18 | 3.04 | 1.1 | inactive |
| H2bc9 | no change with or without drug | 0.56 | 1.85 | -0.56 | 0.99 | inactive |
| Suv39h2 | no change with or without drug | 0.45 | 0.67 | 0.11 | 0.98 | inactive |
| Crlf1 | no change with or without drug | -1.46 | -0.17 | -1.35 | 0.81 | inactive |
| Trit1 | no change with or without drug | -0.56 | 1.35 | -1.35 | 0.89 | inactive |
| Elovl5 | no change with or without drug | -1.24 | 0.84 | -1.69 | 0.83 | inactive |
| Slc45a2 | no change with or without drug | 0.9 | 0 | 1.01 | 1.02 | inactive |
| Mkks | no change with or without drug | -0.45 | 1.52 | -1.24 | 0.9 | inactive |
| Gpat4 | no change with or without drug | 0 | -0.34 | 0.34 | 0.94 | inactive |
| Slc39a4 | no change with or without drug | 0.22 | 0 | 0.34 | 0.96 | inactive |
| Calml3 | no change with or without drug | 0.22 | -0.84 | 1.01 | 0.96 | inactive |
| Unkl | high cell count without drug only | 1.35 | 2.53 | -0.22 | 1.06 | inactive |

Taken from above:
Ywhag, combined z-score class: no change with or without drug
Value for H2bc9 under “viability z-score without drug”: 1.85
Mex3b, outcome: inactive
